From ChEMBL document CHEMBL3988442, “University of Dundee, Small-Polar-MMV Screening Library” (2021).

The chains behind the UniProt entries cited, without tags or fusion partners. Residues count along the entry.
UniProt P9WPC5, whole entry: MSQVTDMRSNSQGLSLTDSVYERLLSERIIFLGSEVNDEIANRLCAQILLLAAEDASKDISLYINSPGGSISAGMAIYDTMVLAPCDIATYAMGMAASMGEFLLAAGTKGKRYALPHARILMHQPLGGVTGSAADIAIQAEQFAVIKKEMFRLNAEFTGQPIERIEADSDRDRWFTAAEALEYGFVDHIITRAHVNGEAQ
UniProt P9WPC3, whole entry partner: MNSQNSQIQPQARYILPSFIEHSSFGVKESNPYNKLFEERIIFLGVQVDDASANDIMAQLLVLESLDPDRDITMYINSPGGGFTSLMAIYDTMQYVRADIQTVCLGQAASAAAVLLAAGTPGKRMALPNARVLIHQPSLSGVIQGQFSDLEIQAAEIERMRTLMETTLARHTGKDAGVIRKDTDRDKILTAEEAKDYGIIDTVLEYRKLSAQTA
UniProt Q4DA54, 1-478: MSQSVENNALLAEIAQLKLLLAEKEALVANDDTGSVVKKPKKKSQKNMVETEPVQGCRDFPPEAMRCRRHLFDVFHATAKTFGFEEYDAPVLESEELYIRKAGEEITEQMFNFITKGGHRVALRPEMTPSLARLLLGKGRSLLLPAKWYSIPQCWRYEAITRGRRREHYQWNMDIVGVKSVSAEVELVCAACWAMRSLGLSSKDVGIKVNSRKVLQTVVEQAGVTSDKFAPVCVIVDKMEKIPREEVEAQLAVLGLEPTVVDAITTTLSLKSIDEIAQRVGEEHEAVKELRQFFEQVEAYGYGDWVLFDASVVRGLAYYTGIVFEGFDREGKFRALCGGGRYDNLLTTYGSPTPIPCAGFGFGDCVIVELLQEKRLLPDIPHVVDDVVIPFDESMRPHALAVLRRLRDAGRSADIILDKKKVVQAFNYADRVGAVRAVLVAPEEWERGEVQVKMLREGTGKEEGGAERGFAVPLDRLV
UniProt Q8IDJ8, 1-583: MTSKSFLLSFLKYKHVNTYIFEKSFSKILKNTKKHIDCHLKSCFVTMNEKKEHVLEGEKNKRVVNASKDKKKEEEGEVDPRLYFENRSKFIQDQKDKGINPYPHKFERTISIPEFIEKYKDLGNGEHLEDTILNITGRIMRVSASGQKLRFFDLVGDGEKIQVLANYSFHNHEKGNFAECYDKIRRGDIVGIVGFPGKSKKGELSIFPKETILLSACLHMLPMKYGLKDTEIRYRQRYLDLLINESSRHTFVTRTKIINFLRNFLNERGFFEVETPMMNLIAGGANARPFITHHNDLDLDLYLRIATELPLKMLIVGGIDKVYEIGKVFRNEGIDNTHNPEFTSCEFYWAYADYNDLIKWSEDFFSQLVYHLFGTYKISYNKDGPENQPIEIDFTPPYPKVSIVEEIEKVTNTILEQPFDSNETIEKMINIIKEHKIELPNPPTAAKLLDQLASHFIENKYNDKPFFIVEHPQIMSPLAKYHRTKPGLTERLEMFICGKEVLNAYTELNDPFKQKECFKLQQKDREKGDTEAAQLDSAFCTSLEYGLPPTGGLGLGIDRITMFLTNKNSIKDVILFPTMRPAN
UniProt P9WNZ1, whole entry: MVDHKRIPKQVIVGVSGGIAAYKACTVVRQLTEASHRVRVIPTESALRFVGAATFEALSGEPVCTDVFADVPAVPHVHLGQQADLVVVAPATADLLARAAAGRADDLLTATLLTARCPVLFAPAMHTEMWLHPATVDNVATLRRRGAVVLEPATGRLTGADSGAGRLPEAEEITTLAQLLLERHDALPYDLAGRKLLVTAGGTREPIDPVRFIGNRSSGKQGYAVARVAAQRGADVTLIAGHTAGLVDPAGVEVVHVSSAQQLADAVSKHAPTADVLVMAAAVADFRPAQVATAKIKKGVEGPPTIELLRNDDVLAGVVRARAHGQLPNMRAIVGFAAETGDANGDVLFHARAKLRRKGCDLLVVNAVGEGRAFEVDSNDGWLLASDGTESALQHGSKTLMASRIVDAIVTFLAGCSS
UniProt I6X8D2, whole entry: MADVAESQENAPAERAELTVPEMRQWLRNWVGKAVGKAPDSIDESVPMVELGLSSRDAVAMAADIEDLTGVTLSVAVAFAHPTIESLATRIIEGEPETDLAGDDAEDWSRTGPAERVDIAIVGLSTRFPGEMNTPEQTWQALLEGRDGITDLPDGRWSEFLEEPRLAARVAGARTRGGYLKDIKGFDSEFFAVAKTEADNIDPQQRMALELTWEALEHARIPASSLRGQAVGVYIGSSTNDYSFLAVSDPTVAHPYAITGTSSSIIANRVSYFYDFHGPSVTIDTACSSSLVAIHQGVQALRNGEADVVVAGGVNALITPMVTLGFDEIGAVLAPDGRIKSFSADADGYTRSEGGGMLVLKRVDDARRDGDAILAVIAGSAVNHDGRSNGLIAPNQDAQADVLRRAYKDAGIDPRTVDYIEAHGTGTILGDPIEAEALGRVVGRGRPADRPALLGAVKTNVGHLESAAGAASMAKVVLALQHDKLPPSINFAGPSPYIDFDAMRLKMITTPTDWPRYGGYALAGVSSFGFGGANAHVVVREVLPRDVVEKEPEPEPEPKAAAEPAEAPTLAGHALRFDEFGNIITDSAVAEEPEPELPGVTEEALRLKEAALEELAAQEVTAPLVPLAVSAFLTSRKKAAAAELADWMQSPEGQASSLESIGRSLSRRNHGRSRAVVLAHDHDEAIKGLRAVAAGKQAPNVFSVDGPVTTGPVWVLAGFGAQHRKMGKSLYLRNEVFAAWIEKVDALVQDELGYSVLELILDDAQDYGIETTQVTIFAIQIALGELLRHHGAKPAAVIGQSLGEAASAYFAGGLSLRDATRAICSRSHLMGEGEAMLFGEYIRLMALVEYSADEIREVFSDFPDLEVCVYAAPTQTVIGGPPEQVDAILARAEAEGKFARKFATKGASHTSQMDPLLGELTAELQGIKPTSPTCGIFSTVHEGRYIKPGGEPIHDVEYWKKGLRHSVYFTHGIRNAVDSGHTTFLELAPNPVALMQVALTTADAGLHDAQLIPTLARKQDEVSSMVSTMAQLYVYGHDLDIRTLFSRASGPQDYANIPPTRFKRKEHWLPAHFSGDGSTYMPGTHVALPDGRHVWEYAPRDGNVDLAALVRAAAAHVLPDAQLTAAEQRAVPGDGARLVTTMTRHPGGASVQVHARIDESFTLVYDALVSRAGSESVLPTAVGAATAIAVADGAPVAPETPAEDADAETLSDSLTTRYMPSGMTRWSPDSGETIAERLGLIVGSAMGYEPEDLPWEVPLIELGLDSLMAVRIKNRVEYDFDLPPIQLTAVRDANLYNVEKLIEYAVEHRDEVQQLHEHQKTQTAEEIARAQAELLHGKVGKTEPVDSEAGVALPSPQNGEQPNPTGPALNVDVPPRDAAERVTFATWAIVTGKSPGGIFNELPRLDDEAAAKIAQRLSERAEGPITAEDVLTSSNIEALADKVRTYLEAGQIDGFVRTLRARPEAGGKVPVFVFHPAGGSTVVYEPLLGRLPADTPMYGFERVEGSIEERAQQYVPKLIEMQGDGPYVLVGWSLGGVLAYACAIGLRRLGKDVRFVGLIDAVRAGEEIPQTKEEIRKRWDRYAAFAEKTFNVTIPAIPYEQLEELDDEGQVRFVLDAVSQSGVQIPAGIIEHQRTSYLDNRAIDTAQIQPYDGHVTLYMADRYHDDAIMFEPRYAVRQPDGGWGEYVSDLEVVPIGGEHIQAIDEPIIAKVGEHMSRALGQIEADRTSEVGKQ

Each number is a percent effect as filed.
The record does not define 0% and 100%; most values in the screen are far below 50% and negative numbers occur (in some assays of this library far below -100).
The compounds are a random part of those screened.
Two or more numbers in one place are separate tests of the same structure; such repeats can differ widely.
A dash means the value is not listed here; it may have been measured.

ClpP1P2: 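ClpP1P2, Mycobacterium tuberculosis (UniProt P9WPC5 and UniProt P9WPC3). Protease assay of ClpP1P2, read by the AMC dye that it sets free. Compounds at 50 µM. Direction is inferred from only a few compounds that gave an IC50; most scored high, so higher reads as stronger inhibition. Most other retested compounds had strongly negative values. About 69,000 compounds were tested under these conditions; 0.015% (about 10) showed 50% or more at least once.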
TcHisRS: 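Enzyme assay of histidyl-tRNA synthetase; the read-out is not stated. Target: Histidine-tRNA ligase, Trypanosoma cruzi CL Brener (UniProt Q4DA54). Tested at 30 µM. Direction is inferred from retests: higher values go with stronger inhibition. Of about 69,000 compounds tested this way, about 31 (0.045%) reached 50% or more in at least one test.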
PfKRS1: 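Enzyme assay of the cytosolic lysyl-tRNA synthetase in 384-well plates, read by luminescence. Target: Lysine-tRNA ligase, Plasmodium falciparum 3D7 (UniProt Q8IDJ8). Tested at 30 µM. Higher reads as stronger inhibition, judged from the few compounds that gave an IC50. About 69,000 compounds were tested under these conditions; 0.071% (about 49) showed 50% or more at least once.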
CoaBC: 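Enzyme assay of CoaBC with a phosphate dye (Biomol Green) read at 650 nm. Target: Coenzyme A biosynthesis protein CoaBC, Mycobacterium tuberculosis (UniProt P9WNZ1). Tested at 30 µM. Higher reads as stronger inhibition, judged from the few compounds that gave an IC50. Most strong results did not repeat in a second test. Size under these conditions: about 67,000 compounds, about 40 of them at 50% or above in at least one test.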
Leishmania in macrophages: 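Cell assay of Leishmania donovani living inside macrophages; the read-out is not stated. Concentration: 30 µM. The record gives no direction; compounds that gave an IC50 in retests scored well above the rest, so higher reads as stronger inhibition. Of about 69,000 compounds tested this way, about 1,000 (1.5%) reached 50% or more in at least one test.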
Pks13 thioesterase: 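Polyketide synthase Pks13, Mycobacterium tuberculosis (UniProt I6X8D2). Enzyme assay of the thioesterase domain of polyketide synthase 13; the read-out is not stated. Concentration: 30 µM. The record gives no direction; the compounds picked for IC50 retests had high values, so higher reads as stronger inhibition. About 67,000 compounds were tested under these conditions; 0.46% (about 300) showed 50% or more at least once.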

Compound	ClpP1P2	TcHisRS	PfKRS1	CoaBC	Leishmania in macrophages	Pks13 thioesterase
Cc1ncnc2c1CCN(c1cc(C(F)(F)F)ncn1)CC2	6.491	3.784	-0.5221	2.411	-3.427	-3.057
CC(NC(=O)NCCn1ccnc1)c1nncn1C (centres undefined)	-8.744	-4.386	-3.516	7.003	-59.34	-18.91
CC(c1cccnc1)N(C)Cc1csc(-c2ccccn2)n1 (centres undefined)	-12.6	-2.479	-4.045	4.051	25.09	-16.25
CC1CCCCN1CCNC(=O)c1ccn(-c2ccc(F)cc2)n1 (centres undefined)	9.919	-6.767	-1.902	0.3559	21.93	-14.01
CN1CCC(NC(=O)C2CN(c3cncnc3)CCO2)CC1 (centres undefined)	-3.282	4.478	2.373	2.676	12.15 & 14.24	13.88
Cc1noc(C)c1CN(C)C(=O)NC1CCN(C2CC2)CC1	2.663	1.527	-5.064	0.2591	15.94	-10.79
CCn1ncc(NC(=O)CCn2ncc3c(Cl)cccc32)c1C	-8.931	7.826	1.327	11.32	-30.21	-3.97
COCc1c(C(=O)NC2CCCC2)nnn1-c1ccc(C)cc1	16.32	5.376	2.969	7.461	-38.69	-5.919
CC(CO)(NC(=O)Nc1nnc(C2CC2)s1)C1CCCCC1 (centres undefined)	0.4431	-26.05	1.56	6.855	-5.866	-9.363
CN(Cc1nc(C2CC2)no1)C1CCS(=O)(=O)C1 (centres undefined)	-13.51	-1.235	0.6698	0.8589	7.864	-1.855
CC(=O)Nc1nc(C(=O)NC(C)c2ccc(C#N)cc2)cs1 (centres undefined)	-9.91	-3.361	12.91	10.58	24.38	-6.454
CC(=O)N1CC(=O)N(c2ccsc2)CC12CCN(Cc1ccoc1)C2 (centres undefined)	15.33	2.404	-0.8631	11.53	14.63	-18.58
CSc1ccc(C(=O)N2CCOCC2c2c(C)nn(C)c2C)o1 (centres undefined)	-7.416	-7.429	5.007	-0.7168	31.53	-2.215
O=C(NCCOc1ccc(Cl)cn1)NCCc1ccccn1	-2.983	-14.89	5.24	5.123	17.82	-18.79
O=C(CC1CCCC1)N1CCN2C[C@@H](CO)[C@H](c3ccccc3)[C@H]2C1	-2.197	1.124	1.595	-2.179	-	-36.83
Cc1ccc(C(=O)N2C[C@@H]3CC[C@H](C2)N(Cc2ccccc2)C3)cn1	-3.607	5.025	-1.641	4.039	-	-15.02
c1cnn(CC2CCCN2Cc2nc(C3CC3)no2)c1 (centres undefined)	2.8	5.747	1.718	-2.194	5.145	-7.498
CNS(=O)(=O)c1ccc(CNC(=O)N(C)CC(O)COC)cc1 (centres undefined)	-7.21	1.84	2.78	1.408	11.97	-5.381
O=C(NCc1cccc(-n2cncn2)c1)NCC(C1CC1)C1CC1	-11.48	4.651	1.479	-2.575	-8.545	-9.151
O=C(O)C(F)(F)F.[H][C@]12CC[C@@]3(N=C(C)N(CC4CC4)C3=O)[C@@]1([H])CN(CC(=O)N(C)C)C2	-	-	-	-	24.64	-
CC(NCc1ccccc1CN1CCCC1=O)c1ccc(C#N)cc1 (centres undefined)	-13.39	1.053	3.156	6.375	7.452	-20.43
O=C(O)C(F)(F)F.[H][C@]12C[C@@H](Cn3cncn3)N(C(C)=O)[C@@]1([H])CCN(CC1CC1)C2	-	-	-	-	4.352	-
N#Cc1ccc(NCCCOCC2CCOC2)c(F)c1 (centres undefined)	14.11	2.674	-0.8026	2.174	34.72	-30.19
COc1ncnc(N)c1CNCC(C)SC (centres undefined)	15.27	-9.211	-2.932	-	4.511	-14
CCn1ccnc1CN1CCC(CNC(=O)c2ccc(C)nc2)C1 (centres undefined)	-0.9944	2.51	4.64	10.91	36.19	-21.2
CN(C)[C@@H]1CCN(C(=O)c2cccc(C#N)c2)[C@H]1Cc1cnn(C)c1	-10.44	0	0.515	4	-	-0.1948
O=C(O)C(F)(F)F.O=C(O)C(F)(F)F.O=C(O)C(F)(F)F.[H][C@@]12OCCN(Cc3cccnc3)[C@@]1([H])CC[C@H]2OCCN1CCCC1	-	-	-	-	-1.777	-
CNC(=O)c1cccc(CCNC2CCSc3ccccc32)c1 (centres undefined)	-7.326	-1.961	1.768	3.415	-3.125	6.824
Cc1cc(C)cc(-c2cccc(CC3(C(=O)O)CCOCC3)c2)c1	15.15	-9.189	-10.91	-1.667	-42.71	36.48
Cc1ncc(CN2CCCC(O)(c3ccc(F)cc3)CC2)n1C.O=C(O)CC(O)(CC(=O)O)C(=O)O (centres undefined)	-	-	-	-	23.65	-
CN(C)Cc1cc(CC2(NCc3ccccc3Cl)COC2)no1	2.823	1.087	3.96	6.402	24.15	-7.057
Cc1cc(N2CCSCC2)ccc1NC(=O)N(CCO)C1CC1	-13	7.389	9.739	3.481	46.36	-24.76
O=C(C1CC1)N1CC[C@H]2[C@@H]1CCC(=O)N2c1ccccc1	16.45	1.149	-1.323	4.684	-	-22.58
CC1(c2ccc(Br)cc2)CC(=O)N(CC(N)=O)C1=O (centres undefined)	-1.077	4.741	1.183	-3.169	6.722	-40.87
CC(C)n1ccnc1C1CCN(C(=O)N2CCCC2)CC1	-16.89	1.508	-2.488	3.257	4.976	-8.389
CCCN(CC(F)(F)F)C(=O)c1cc(F)cc2[nH]cnc12	-5.89	1.463	2.02	-0.8783	14.45	-16.83
COCCOc1ccccc1C(=O)Nc1c(C)cnn1CC1CC1	-15.76	1.031	-4.056	3.423	15.75	-2.823
Cc1nonc1C1CCCN1C(=O)c1cn2ccsc2n1 (centres undefined)	-13.52	1.293	1.956	2.662	17.16	-30.84
COCc1noc(C2(c3ccc(F)cc3)CCOCC2)n1	13.25	-0.8333	-10.11	-3.198	9.956	-12.5
CCN(C)c1ccc(CNC(=O)CCn2cc(C)cn2)cc1F	-10.43	1.02	3.484	2.061	-42.4	-0.7154
Cc1cccc(CN2CCCCC2c2n[nH]cc2-c2cc(C)no2)c1.Cl (centres undefined)	-	-	-	-	1.681	-
Cc1noc(C)c1CN1CCc2ncc(Cn3cccn3)n2CC1.O=C(O)C(F)(F)F	-	-	-	-	17.03	-
Cc1ccc(CN2CCC(Cc3nnc(CO)n3C)CC2)cc1C	-6.992	3.261	2.246	1.815	-9.702	1.086
CN1CCN(CC(NCc2ccc(F)c(F)c2)c2ccccc2)CC1 (centres undefined)	-16.12	4.819	-0.8251	2.545	96.47 & 88.37	-19.13
CN(C)c1cccc(C(=O)N2CCn3c(nnc3C3CC3)C2)c1	-8.743	3.955	-2.256	-29.3	-4.858	-19.1
CSc1ccc2c(C)cc(N[C@@H](C)CO)nc2c1	0.8781	-1.299	-0.06114	-4.146	-17.48	22.44
CC(C)N1CCC(Cc2cncc(-c3ccccc3C(=O)O)n2)C1 (centres undefined)	6.315	2.222	2.791	3.632	13.64 & 13.24	22.82
Cc1cc(Nc2ccc3c(c2)CC(=O)N3)nc(C2CC2)n1	-22.23	12.37	4.177	2.2	23.32	-17.72
O=C(O)c1ccccc1CN1CCOC(CCc2ccncn2)C1 (centres undefined)	5.596	9.701	-0.2227	13.87	25.26 & 18.71	6.848
Cc1nn(C)c(C)c1C1COCCN1c1ncnc2sccc12 (centres undefined)	-4.186	2.905	6.207	3.571	28.47	-10.25

The first 3 entries again:

Compound	ClpP1P2	TcHisRS	PfKRS1	CoaBC	Leishmania in macrophages	Pks13 thioesterase
Cc1ncnc2c1CCN(c1cc(C(F)(F)F)ncn1)CC2	6.491	3.784	-0.5221	2.411	-3.427	-3.057
CC(NC(=O)NCCn1ccnc1)c1nncn1C (centres undefined)	-8.744	-4.386	-3.516	7.003	-59.34	-18.91
CC(c1cccnc1)N(C)Cc1csc(-c2ccccn2)n1 (centres undefined)	-12.6	-2.479	-4.045	4.051	25.09	-16.25